One molecule from patent US20160347850A1 (AbbVie / Abbott, published 2016) can be followed below.

The assay deals with rabbit CD40 (rabbit). Briefly: Alexa 647 labeled Ab102 on the surface of B cells.

Results are given in words; binding and its absence hold for the method and conditions named.

B1: Ab102 (antibody, human IgG1, kappa, L234A L235A, V domains shown)
VH: EVQLVESGGGLVKPGGSLRLSCAASGFTFSDYGMNWVRQAPGKGLEWIAYISSGRGNIYYADTVKGRFTISRDNAKNSLYLQMNSLRAEDTAVYYCARSWGYFDVWGQGTTVTVSS
VL: DIVMTQSPDSLAVSLGERATINCKSSQSLLNRGNQKNYLTWFQQKPGQPPKLLIYWASTRESGVPDRFSGSGSGTDFTLTISSLQAEDVAVYYCQNDYTYPLTFGQGTKLEIKR
notes: Humanized IgG1/kappa with L234A, L235A, T250Q, M428L (LALA-QL); also called VL huAbv1/VH huAb1v1CDR2v7/hCg1/k-LALA-QL; mAb CD40 Ab102 [hu IgG1/k]; LALA QL
Take B1: the binding result is reported as “no binding (tested: 30 µg/mL (200 nM))”.
